Assay results taken from patent publication US20220307034A1.
These are yes or no findings as the source states them, for the method shown. Binding seen in cells or lysates may run through a third protein. Some entries that bind do so weakly or less than the wild type. Where a sequence is shown, tags or fusion partners need not be part of it.

By UniProt entry, the sequences of proteins in these tests, tags left out. Residues count along the entry.
UniProt P35579, residues 2-1960: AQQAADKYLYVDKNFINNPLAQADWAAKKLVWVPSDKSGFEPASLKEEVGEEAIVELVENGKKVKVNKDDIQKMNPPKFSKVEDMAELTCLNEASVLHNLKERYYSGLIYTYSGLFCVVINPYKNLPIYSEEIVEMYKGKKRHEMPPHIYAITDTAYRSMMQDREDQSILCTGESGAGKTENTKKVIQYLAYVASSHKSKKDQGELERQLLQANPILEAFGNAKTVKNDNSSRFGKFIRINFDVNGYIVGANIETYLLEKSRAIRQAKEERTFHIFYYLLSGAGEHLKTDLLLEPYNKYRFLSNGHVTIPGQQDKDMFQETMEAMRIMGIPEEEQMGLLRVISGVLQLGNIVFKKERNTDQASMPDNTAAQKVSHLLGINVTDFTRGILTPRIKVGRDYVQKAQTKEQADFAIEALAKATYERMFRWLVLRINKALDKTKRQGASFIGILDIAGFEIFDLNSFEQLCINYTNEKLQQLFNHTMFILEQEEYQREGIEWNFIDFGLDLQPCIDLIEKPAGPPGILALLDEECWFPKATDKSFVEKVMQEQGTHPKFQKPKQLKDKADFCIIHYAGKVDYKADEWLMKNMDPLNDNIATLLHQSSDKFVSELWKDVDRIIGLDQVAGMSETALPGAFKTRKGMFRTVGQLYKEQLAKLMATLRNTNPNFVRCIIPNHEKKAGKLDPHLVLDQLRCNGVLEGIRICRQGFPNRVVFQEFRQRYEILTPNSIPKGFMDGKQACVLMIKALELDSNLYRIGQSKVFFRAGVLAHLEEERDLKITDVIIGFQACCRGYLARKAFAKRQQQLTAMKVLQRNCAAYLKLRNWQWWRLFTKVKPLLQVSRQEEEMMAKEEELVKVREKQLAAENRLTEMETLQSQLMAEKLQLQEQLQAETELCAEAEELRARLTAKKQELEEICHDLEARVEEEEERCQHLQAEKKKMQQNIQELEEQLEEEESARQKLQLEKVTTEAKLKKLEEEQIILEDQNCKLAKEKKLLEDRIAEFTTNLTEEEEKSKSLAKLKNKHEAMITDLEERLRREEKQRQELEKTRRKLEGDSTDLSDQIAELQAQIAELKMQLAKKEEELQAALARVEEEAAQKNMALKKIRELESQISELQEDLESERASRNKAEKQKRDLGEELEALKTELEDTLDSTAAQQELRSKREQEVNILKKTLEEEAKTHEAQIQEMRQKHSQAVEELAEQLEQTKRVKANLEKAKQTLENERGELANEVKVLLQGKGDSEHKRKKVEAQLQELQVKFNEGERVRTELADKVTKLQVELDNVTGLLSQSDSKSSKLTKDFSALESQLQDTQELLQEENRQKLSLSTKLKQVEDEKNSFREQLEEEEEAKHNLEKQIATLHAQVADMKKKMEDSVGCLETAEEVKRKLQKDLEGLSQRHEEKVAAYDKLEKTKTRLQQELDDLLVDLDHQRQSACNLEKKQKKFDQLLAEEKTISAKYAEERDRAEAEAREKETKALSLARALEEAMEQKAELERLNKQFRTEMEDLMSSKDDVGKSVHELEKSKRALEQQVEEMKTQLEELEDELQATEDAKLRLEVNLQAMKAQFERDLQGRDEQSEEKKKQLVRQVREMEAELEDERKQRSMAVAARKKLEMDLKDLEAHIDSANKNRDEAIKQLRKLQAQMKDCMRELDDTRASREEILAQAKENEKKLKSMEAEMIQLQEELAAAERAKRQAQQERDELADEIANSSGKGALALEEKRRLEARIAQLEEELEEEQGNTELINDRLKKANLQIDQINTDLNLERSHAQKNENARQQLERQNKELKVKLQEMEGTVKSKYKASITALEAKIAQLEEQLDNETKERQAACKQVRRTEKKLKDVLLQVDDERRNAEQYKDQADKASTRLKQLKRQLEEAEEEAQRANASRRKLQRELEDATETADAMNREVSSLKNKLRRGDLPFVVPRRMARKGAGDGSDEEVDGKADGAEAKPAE

How the values were obtained:
[1] = molecular target: myosin heavy-chain 9 (MYH9) protein (human) (UniProt P35579); experiment: Flag immunoprecipitation from HEK293T cells overexpressing Flag-APE2, LC-MS proteomics
[2] = molecular target: myosin heavy-chain 9 (MYH9) protein (human) (UniProt P35579); experiment: Flag immunoprecipitation (pulldown) and LC-MS; heading of the results section
[3] = molecular target: myosin heavy-chain 9 (MYH9) protein (human) (UniProt P35579); experiment: Flag immunoprecipitation (pulldown) and LC-MS

binding [1]: binds
binding [2]: binds
binding [3]: binds
B1: Flag-APE2 (3FLAG-tagged human apurinic/apyrimidinic endonuclease 2, from PMEV-3FLAG-hAPE2 plasmid, overexpressed in HEK293T cells) (enzyme, UniProt Q9UBZ4 1-518, looked up, not shown: small tags and cut ends)
chain: MLRVVSWNINGIRRPLQGVANQEPSNCAAVAVGRILDELDADIVCLQETKVTRDALTEPLAIVEGYNSYFSFSRNRSGYSGVATFCKDNATPVAAEEGLSGLFATQNGDVGCYGNMDEFTQEELRALDSEGRALLTQHKIRTWEGKEKTLTLINVYCPHADPGRPERLVFKMRFYRLLQIRAEALLAAGSHVIILGDLNTAHRPIDHWDAVNLECFEEDPGRKWMDSLLSNLGCQSASHVGPFIDSYRCFQPKQEGAFTCWSAVTGARHLNYGSRLDYVLGDRTLVIDTFQASFLLPEVMGSDHCPVGAVLSVSSVPAKQCPPLCTRFLPEFAGTQLKILRFLVPLEQSPVLEQSTLQHNNQTRVQTCQNKAQVRSTRPQPSQVGSSRGQKNLKSYFQPSPSCPQASPDIELPSLPLMSALMTPKTPEEKAVAKVVKGQAKTSEAKDEKELRTSFWKSVLAGPLRTPLCGGHREPCVMRTVKKPGPNLGRRFYMCARPRGPPTDPSSRCNFFLWSRPS
